Data on one substance can be found in PMC3749933.

Results are given in words; binding and its absence hold for the method and conditions named. Binding seen in cells or lysates may run through a third protein. Where a sequence is shown, tags or fusion partners need not be part of it.

The target of the experiment is T1, FLAG-tagged CESA9 (rice) (UniProt Q69P51).
T1 sequence: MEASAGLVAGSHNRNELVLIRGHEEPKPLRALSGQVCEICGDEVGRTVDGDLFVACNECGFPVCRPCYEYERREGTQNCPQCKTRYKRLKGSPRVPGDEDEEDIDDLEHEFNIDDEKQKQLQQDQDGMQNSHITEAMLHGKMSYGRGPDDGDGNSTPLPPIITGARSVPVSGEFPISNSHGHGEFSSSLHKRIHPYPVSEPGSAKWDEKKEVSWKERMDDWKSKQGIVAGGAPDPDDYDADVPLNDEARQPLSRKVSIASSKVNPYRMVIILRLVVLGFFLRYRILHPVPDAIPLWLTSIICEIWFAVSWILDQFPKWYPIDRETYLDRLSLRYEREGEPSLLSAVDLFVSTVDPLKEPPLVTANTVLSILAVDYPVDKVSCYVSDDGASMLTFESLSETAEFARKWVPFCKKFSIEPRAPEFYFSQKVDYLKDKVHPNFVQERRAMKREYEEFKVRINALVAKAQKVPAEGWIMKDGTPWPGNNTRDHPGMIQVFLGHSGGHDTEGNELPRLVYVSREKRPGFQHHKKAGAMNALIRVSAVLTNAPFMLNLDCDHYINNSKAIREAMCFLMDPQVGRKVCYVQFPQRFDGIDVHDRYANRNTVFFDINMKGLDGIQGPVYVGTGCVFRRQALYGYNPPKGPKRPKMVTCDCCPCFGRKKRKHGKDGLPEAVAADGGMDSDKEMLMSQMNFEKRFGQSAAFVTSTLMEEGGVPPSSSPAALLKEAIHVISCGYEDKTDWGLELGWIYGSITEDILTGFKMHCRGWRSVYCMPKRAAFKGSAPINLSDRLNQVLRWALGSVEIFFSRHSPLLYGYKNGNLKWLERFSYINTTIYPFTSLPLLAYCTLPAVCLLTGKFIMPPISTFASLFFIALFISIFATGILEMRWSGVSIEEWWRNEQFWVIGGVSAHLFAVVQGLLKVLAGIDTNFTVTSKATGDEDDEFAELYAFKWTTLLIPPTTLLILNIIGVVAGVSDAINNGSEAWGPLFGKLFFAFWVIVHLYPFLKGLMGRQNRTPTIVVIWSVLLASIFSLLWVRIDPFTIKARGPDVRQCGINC
The experiment in a line: co-IP; total membrane proteins from young internodes of transgenic rice expressing FLAG-CESA9, incubated with anti-FLAG M2 affinity gel overnight at 4°C; input and output blotted with anti-CESA, anti-BC1 and anti-UGPase antibodies.

“UDP-glucose pyrophosphorylase (rice (endogenous in rice internodes)) (enzyme)”: the binding result is recorded as “no binding”.
